Measurements from patent publication US20130302346A1 (LEXICON PHARMACEUTICALS, published 2013).
These are yes or no findings as the source states them, for the method shown. A result given as binding can be weak or reduced; the word gives no strength.

B1: MAb 2.78 (antibody, V domains shown)
VH: DVQLVESGGGLVQPGGSRKLSCAASGFTFSSFGMHWVRQAPEKGLEWVAYITSGSGAIYYADTVRGRFTISRDTPKNTLFLQMTSLRSEDTAMYYCARSADGLDYWGQGTSVTVSS
VL: DIQMTQSPASLYVSVGETVTITCRASENIYSNLAWYQQKQGKSPQLLVYGATNLADGVPSRFSGSGSGTQYSLKINSLKSEDFGSYYCQHFWGTPFTFGSGTKLEIKR
notes: Mouse monoclonal antibody from Campaign 2 (raised against mouse NOTUM), IgG2b
B2: MAb 2.1029 (antibody, IgG2a, V domains shown)
VH: QVQLKESGPGLVAPSQSLSITCTVSGFSLTSYGVHWVRQPPGKGLEWLGVIWAGGSTNYNSALMSRLSISKDNSKSQVFLKMNSLQTDDTAIYFCARDGDYGTIYAMDYWGQGTSVTVSS
VL: DIQMTQTTSSLSASLGDRVTISCRASQDISNYLNWYQQKPDGTVKLLIYYTSRLHSGVPSRFTGSGSGTDYSLTISNLEQEDIATYFCQQGKTLPRTFGGGTMLEIKR
notes: Mouse monoclonal antibody from Campaign 2, IgG2a

Biological target: Cynomolgus monkey NOTUM (cynomolgus monkey)
Assay: ELISA

Binder	binding
B1	binds
B2	binds
